# This is one part of the list.
# Compound: CC1Cc2ccccc2N1C(=O)C1CCCN(C1)C(=O)CCl (mixture of isomers) [TRIM25 ligand 11 (diastereomer mixture)]
# Experiment: probe-labelled cysteine peptide fold change vs DMSO (competition) (log2 fold change); higher = less target engagement (more negative = stronger competition)
# Conditions: THP-1, incubation time: 4 h
# 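Also: competitive chemoproteomic profiling in live THP-1 cells with an iodoacetamide desthiobiotin (IA-DTB) probe, comparing probe-labelled peptide intensities in compound-treated cells against DMSO-treated controls.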
Target,probe-labelled cysteine peptide fold change (10 µM),probe-labelled cysteine peptide fold change (50 µM)
MYO9B_Q13459_234_RVNQCIVISGESGSGK (UniProt Q13459),0.0631,0.0824
NAA16_Q6N069_529_HFFEITDDQFDFHTYCMR (UniProt Q6N069),0.175,0.173
NCAPD2_Q15021_421_SVLVCK (UniProt Q15021),-0.0768,0.17
MYOF_Q9NZM1_1574_GLELQPQDNNGLCDPYIK (UniProt Q9NZM1),0.231,0.27
MYO6_Q9UM54_252_LCAGASEDIR (UniProt Q9UM54),0.257,0.415
NCAPD3_P42695_760_ISSQQNPNSNTLGHILCVIGHIAK (UniProt P42695),-0.000379,-0.165
NCAPD3_P42695_588_EDLWILQDQCR (UniProt P42695),0.509,0.0819
MYOF_Q9NZM1_409_KVCTNIIEK (UniProt Q9NZM1),-0.133,0.037
MYOF_Q9NZM1_1553_ELPDSVPQECTVR (UniProt Q9NZM1),0.0826,0.058
NCAM2_O15394_232_GEEMTFSCR (UniProt O15394),-0.0122,0.0245
NARS_O43776_342_HLAEYTHVEAECPFLTFDDLLNR (UniProt O43776),0.547,0.432
NAA10_P41227_17+21_NARPEDLMNMQHCNLLCLPENYQMK (UniProt P41227),-0.0777,-0.156
NBR1_Q14596_505_TDDLTCQQEETFLLAK (UniProt Q14596),0.0872,0.127
NARS_O43776_342_RHLAEYTHVEAECPFLTFDDLLNR (UniProt O43776),-0.0984,-0.0321
NBR1_Q14596_433_DVLVPCLK (UniProt Q14596),0.00609,0.0287
NCAPD2_Q15021_1249_MLDNFDCFGDK (UniProt Q15021),0.0438,-0.0579
MYO18A_Q92614_1699_NQLEESEFTCAAAVK (UniProt Q92614),-0.207,-0.111
NBEAL2_Q6ZNJ1_245_GPAPDPCLVPLALEALVGAVHVLHASR (UniProt Q6ZNJ1),-0.00453,-0.382
NAXD_Q8IW45_108_VGADLSHVFCASAAAPVIK (UniProt Q8IW45),0.092,-0.0774
NBEAL1_Q6ZS30_271_CLTEVVHILLSSNSDQR (UniProt Q6ZS30),0.216,0.0625
NAPA_P54920_103_ADPQEAINCLMR (UniProt P54920),0.0282,0.0252

# 6 entries picked at random from those above:
Target,probe-labelled cysteine peptide fold change (10 µM),probe-labelled cysteine peptide fold change (50 µM)
MYOF_Q9NZM1_1553_ELPDSVPQECTVR (UniProt Q9NZM1),0.0826,0.058
MYO6_Q9UM54_252_LCAGASEDIR (UniProt Q9UM54),0.257,0.415
NBEAL2_Q6ZNJ1_245_GPAPDPCLVPLALEALVGAVHVLHASR (UniProt Q6ZNJ1),-0.00453,-0.382
NARS_O43776_342_HLAEYTHVEAECPFLTFDDLLNR (UniProt O43776),0.547,0.432
NCAPD3_P42695_760_ISSQQNPNSNTLGHILCVIGHIAK (UniProt P42695),-0.000379,-0.165
NCAM2_O15394_232_GEEMTFSCR (UniProt O15394),-0.0122,0.0245

# Further entries follow:

Target,probe-labelled cysteine peptide fold change (10 µM),probe-labelled cysteine peptide fold change (50 µM)
MYO1F_O00160_807_GQVCEVLKK (UniProt O00160),-0.0572,-0.136
NBEAL2_Q6ZNJ1_822_TLCTLGPNETAPFKPEGELHELSTR (UniProt Q6ZNJ1),0.153,0.106
MYO19_Q96H55_755_VFMTDSMLELLECGR (UniProt Q96H55),-0.0496,-0.124
NADK2_Q4G0N4_311_SSGLNLCTGTGSK (UniProt Q4G0N4),-0.0288,-0.0319
MYO6_Q9UM54_1265_CGGIQYLQNAIESR (UniProt Q9UM54),-0.0799,-0.0349
NBN_O60934_478_ERDEENQEMSSCK (UniProt O60934),-0.0748,-0.331
NBEAL2_Q6ZNJ1_142_GTQLENVALHALLLCEGLFDPYQTWR (UniProt Q6ZNJ1),0.171,-0.202
NBAS_A2RRP1_1634_QLHCYNER (UniProt A2RRP1),0.000992,-0.0554
MYH9_P35579_917_KQELEEICHDLEAR (UniProt P35579),0.00836,0.00314
NAA40_Q86UY6_26_AAMDAVCAK (UniProt Q86UY6),-0.0759,-0.203
NARS2_Q96I59_359_HCGNIPVFVINYPLTLK (UniProt Q96I59),0.183,0.367
NCAPD2_Q15021_1229_DLAYCVSQLPLTER (UniProt Q15021),-0.0438,0.0629
NCAPG_Q9BPX3_751_HCLGVFFPVFAYASR (UniProt Q9BPX3),-0.0331,0.114
NARS_O43776_511_YGTCPHGGYGLGLER (UniProt O43776),-0.221,0.0274
MYO6_Q9UM54_375_SAQSLEYCAELLGLDQDDLR (UniProt Q9UM54),-0.328,-0.182
MYO1E_Q12965_107_ENQCVIISGESGAGK (UniProt Q12965),-0.253,-0.391
NANS_Q9NR45_8_PLELELCPGR (UniProt Q9NR45),-0.084,0.0856
NAA35_Q5VZE5_420_DCIDSFVTHCVRPFCSLIQIHGHNR (UniProt Q5VZE5),-0.219,-0.139
NCALD_P61601_38_DCPSGHLSMEEFKK (UniProt P61601),0.162,-0.121
NCAPD3_P42695_824_ASAETPAEEQELLTQVCGDVLSTCEHR (UniProt P42695),0.231,-0.0777
NCDN_Q9UBB6_469_LLLPGWCHLTVEDGPR (UniProt Q9UBB6),-0.00745,0.0051

Target,probe-labelled cysteine peptide fold change (10 µM),probe-labelled cysteine peptide fold change (50 µM)
NCAM1_P13591_96_CVVTGEDGSESEATVNVK (UniProt P13591),0.0903,0.126
NCAM1_P13591_829_GPVEAKPECQETETK (UniProt P13591),0.112,0.319
MYO18A_Q92614_604_RPASEATFNVFYYLLACGDGTLR (UniProt Q92614),0.245,0.439
NAPRT_Q6XQN6_48_CPFGGAFALAAGLRDCVR (UniProt Q6XQN6),-0.259,-0.0388
MYO18A_Q92614_1164_SSCCMGLSR (UniProt Q92614),0.0273,0.0555
NAPG_Q99747_193_EIENYPTCYK (UniProt Q99747),0.0586,0.23
NCAPD3_P42695_143_CIQTLK (UniProt P42695),0.0922,0.12
NAA40_Q86UY6_59_NGLNVSIECK (UniProt Q86UY6),-0.0605,-0.0976
MYO1G_B0I1T2_472_GILAVLDEACSSAGTITDR (UniProt B0I1T2),0.0341,0.0614
NAP1L1_P55209_88_CAQIEAK (UniProt P55209),-0.119,0.00995
MYSM1_Q5VVJ2_564_SSFDPFQLIPCNFFSEEK (UniProt Q5VVJ2),0.0331,0.0254
NAGK_Q9UJ70_268_IGLPILCVGSVWK (UniProt Q9UJ70),0.0341,0.253
NAGA_P17050_80_DMGYTYLNIDDCWIGGR (UniProt P17050),-0.231,0.012
MYOF_Q9NZM1_1167_DSFSDPYAHICFLHR (UniProt Q9NZM1),0.214,0.0534
NAP1L4_Q99733_250_ADPFSFEGPEIVDCDGCTIDWK (UniProt Q99733),0.0304,0.0752
NCAPD3_P42695_361_ILLQHICAK (UniProt P42695),-0.145,0.173
MYH9_P35579_896_LQLQEQLQAETELCAEAEELR (UniProt P35579),-0.037,-0.0679
NAA50_Q9GZZ1_100_MLNHVLNICEK (UniProt Q9GZZ1),0.00145,0.0562
NAB2_Q15742_481_LSPCVPAKPPLAEFEEGLLDR (UniProt Q15742),-0.264,-0.523
NACC1_Q96RE7_178_TEQQESDSVQCMPVAK (UniProt Q96RE7),-0.0858,0.0584
NANS_Q9NR45_184_PLNPNFCFLQCTSAYPLQPEDVNLR (UniProt Q9NR45),0.0746,0.0261

Target,probe-labelled cysteine peptide fold change (10 µM),probe-labelled cysteine peptide fold change (50 µM)
MYO1F_O00160_856_TEFVSLLCK (UniProt O00160),0.0865,0.117
NBEAL2_Q6ZNJ1_2335_ALEGIISNFGQTPCQLLK (UniProt Q6ZNJ1),0.0509,-0.034
NAA16_Q6N069_465_EAEEMCSK (UniProt Q6N069),-0.103,-0.0897
NAA50_Q9GZZ1_61_LAYFNDIAVGAVCCR (UniProt Q9GZZ1),0.0866,0.0992
NAXE_Q8NCW5_283_KYQLNLPPYPDTECVYR (UniProt Q8NCW5),-0.147,-0.069
NAA10_P41227_194_GNSPPSSGEACR (UniProt P41227),0.13,-0.143
NCAPD2_Q15021_596_ESTGNMVTGQTVCK (UniProt Q15021),-0.0711,-0.291
NAXD_Q8IW45_82_IGVVGGCQEYTGAPYFAAISALK (UniProt Q8IW45),-0.00453,0.0133
MYOF_Q9NZM1_1425_ASLLSAPPCR (UniProt Q9NZM1),0.0794,-0.0521
NCBP1_Q09161_477_ILDIVPPTFSALCPANPTCIYK (UniProt Q09161),0.0139,0.126
MYO18A_Q92614_811_GASFEELCHNYTQDR (UniProt Q92614),-0.0106,-0.114
NCAPD3_P42695_867_YIFTLGDIAQLCPAR (UniProt P42695),0.0327,0.0499
NAGA_P17050_343_ASALVFFSCR (UniProt P17050),-0.131,-0.000148
NAE1_Q13564_483_DDYVHEFCR (UniProt Q13564),0.148,0.12
MYO1F_O00160_101+105_NMLIDCENQCVIISGESGAGK (UniProt O00160),0.288,0.0713
NAPA_P54920_103_KADPQEAINCLMR (UniProt P54920),0.0661,0.0556
NCBP1_Q09161_261_HILRPYLAFDSILCEALQHNLPPFTPPPHTEDSVYPMPR (UniProt Q09161),0.042,0.045
NCBP2_P52298_84_TACGFCFVEYYSR (UniProt P52298),-0.0379,0.0446
MYO18A_Q92614_404_ANAPSCDRLEDLASLVYLNESSVLHTLR (UniProt Q92614),-0.123,-0.149
NBEAL2_Q6ZNJ1_1491_GQVFSVLTQLGASATLVRPPDCIKR (UniProt Q6ZNJ1),-0.263,-0.151
MYO9B_Q13459_62_CYVLVEVK (UniProt Q13459),-0.165,-0.0818

# — the supplement of paper PMC12067093, “Discovery and optimisation of a covalent ligand for TRIM25 and its application to targeted protein ubiquitination” (Chemical Science, 2025)
